Test results published in article PMC3581582.

Amino acid sequences for entries named in this document (tags omitted). A change or cut given only in a name is not applied to a line headed by its entry.
UniProt Q382V6: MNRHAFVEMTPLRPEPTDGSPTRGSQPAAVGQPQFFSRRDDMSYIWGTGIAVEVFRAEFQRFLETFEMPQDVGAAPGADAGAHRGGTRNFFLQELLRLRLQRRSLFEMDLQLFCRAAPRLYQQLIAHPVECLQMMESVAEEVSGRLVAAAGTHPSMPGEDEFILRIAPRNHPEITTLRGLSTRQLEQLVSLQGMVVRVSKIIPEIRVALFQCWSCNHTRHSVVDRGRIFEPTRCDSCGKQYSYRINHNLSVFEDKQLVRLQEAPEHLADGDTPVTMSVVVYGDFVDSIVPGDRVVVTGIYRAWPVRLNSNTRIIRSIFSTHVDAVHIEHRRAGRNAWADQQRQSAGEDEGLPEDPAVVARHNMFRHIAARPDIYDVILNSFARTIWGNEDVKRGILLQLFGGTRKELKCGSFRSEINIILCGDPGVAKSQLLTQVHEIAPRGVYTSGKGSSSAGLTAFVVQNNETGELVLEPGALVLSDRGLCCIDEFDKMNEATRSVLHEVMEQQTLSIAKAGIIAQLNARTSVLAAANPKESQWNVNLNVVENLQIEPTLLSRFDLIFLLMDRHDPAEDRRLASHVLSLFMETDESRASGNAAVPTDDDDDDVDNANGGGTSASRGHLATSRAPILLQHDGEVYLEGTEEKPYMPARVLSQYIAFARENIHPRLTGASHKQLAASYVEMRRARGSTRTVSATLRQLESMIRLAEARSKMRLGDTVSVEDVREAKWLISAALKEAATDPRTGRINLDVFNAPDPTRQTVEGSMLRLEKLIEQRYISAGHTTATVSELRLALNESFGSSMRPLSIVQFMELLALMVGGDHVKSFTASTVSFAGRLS
UniProt Q383B6: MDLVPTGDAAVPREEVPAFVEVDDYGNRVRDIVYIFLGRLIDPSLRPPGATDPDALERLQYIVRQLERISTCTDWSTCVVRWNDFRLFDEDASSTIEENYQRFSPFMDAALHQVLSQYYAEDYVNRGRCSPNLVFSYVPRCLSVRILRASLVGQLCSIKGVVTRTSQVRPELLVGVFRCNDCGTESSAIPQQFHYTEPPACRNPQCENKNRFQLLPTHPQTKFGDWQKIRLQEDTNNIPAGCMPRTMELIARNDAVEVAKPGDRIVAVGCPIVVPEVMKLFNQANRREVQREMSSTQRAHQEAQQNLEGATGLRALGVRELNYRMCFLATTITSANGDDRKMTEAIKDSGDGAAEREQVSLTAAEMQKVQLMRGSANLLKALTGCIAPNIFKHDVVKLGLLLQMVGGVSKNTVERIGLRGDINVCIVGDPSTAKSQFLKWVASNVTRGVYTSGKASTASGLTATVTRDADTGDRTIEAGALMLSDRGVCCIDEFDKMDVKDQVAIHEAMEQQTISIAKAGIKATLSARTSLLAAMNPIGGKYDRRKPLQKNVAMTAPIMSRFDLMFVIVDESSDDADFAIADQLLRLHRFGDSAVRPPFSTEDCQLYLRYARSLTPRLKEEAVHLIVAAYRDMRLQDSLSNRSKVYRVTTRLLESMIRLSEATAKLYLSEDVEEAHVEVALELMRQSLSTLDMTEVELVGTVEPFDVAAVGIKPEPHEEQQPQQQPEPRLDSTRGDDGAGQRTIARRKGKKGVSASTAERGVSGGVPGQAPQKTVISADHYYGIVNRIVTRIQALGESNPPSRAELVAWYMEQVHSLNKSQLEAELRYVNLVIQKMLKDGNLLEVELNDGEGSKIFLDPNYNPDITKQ
UniProt Q389T6: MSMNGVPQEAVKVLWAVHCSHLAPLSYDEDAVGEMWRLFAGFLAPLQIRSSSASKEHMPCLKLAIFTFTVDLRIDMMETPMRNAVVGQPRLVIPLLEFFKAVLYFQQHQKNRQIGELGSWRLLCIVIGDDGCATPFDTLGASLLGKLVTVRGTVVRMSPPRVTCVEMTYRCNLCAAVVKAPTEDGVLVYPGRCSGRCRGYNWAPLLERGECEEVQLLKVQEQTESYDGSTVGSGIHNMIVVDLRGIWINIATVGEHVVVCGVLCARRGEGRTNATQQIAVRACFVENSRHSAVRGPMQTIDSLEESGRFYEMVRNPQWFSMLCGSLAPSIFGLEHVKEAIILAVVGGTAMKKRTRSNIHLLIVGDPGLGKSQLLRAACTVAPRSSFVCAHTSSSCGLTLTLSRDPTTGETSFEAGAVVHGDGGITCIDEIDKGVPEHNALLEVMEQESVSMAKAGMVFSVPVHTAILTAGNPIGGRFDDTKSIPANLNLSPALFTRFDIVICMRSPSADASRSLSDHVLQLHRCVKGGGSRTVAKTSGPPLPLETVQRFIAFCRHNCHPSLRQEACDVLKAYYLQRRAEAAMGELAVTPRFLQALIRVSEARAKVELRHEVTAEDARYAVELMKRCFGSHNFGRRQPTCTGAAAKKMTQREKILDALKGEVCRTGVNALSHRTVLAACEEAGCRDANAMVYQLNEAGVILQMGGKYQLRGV

Each substance was assayed against TbMCM-BP-PTP (Trypanosoma brucei) (UniProt Q57V33) (assay: affinity purification with mass spectrometry; tandem affinity purification (IgG, TEV elution, anti-ProtC) of TbMCM-BP-PTP from crude extract of PF T. brucei; whole gel lane of the final eluate analysed by LC-MS/MS).

binding, binds:
MCM4 (from UniProt Q382V6), MCM6 (from UniProt Q383B6), MCM8 (from UniProt Q389T6)

No constants are given. Whether binding was seen depends on the method and setting. In cells and extracts the contact can be indirect. Here binding means that the protein was enriched with, or labelled near, the bait; the list need not be complete.
